Consider 5 substances from publication PMC5308672.

Chains of the proteins cited; added tags and fusions are not shown. Residues count along the entry.
UniProt Q00887, residues 35-426: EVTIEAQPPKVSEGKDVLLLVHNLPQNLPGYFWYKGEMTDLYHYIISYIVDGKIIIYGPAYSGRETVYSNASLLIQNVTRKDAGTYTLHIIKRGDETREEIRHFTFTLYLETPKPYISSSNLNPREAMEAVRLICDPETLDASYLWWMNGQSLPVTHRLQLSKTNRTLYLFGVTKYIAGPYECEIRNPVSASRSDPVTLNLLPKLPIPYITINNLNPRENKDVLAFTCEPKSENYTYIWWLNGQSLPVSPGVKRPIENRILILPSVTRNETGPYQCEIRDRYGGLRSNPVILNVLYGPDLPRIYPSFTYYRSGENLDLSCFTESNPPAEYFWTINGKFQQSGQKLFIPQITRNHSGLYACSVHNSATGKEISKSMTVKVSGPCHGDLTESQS
UniProt Q13485: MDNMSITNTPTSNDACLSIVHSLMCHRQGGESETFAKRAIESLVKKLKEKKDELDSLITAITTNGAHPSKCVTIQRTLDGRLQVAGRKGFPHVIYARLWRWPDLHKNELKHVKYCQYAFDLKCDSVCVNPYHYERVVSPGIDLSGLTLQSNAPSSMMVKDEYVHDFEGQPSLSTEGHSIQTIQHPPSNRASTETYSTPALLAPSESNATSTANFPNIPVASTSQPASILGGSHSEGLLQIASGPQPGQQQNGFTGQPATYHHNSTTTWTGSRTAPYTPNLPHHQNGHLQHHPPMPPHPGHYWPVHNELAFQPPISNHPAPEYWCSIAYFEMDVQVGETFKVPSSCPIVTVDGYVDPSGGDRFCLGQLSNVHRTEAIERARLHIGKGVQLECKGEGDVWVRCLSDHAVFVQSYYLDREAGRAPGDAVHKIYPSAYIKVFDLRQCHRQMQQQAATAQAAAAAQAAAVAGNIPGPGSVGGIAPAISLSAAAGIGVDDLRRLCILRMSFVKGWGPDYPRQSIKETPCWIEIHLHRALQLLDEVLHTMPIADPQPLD
UniProt P84022: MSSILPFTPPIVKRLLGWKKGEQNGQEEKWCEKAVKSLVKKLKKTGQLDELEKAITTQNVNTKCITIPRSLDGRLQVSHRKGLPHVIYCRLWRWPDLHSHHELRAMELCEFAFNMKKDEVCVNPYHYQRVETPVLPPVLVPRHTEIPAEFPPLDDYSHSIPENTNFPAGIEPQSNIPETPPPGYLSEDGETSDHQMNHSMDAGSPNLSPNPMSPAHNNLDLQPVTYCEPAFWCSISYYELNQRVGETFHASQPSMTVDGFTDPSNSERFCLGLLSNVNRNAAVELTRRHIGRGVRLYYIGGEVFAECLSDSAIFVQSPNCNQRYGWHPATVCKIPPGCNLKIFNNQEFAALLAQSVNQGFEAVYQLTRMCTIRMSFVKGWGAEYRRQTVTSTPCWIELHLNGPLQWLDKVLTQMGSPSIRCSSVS
UniProt Q15796: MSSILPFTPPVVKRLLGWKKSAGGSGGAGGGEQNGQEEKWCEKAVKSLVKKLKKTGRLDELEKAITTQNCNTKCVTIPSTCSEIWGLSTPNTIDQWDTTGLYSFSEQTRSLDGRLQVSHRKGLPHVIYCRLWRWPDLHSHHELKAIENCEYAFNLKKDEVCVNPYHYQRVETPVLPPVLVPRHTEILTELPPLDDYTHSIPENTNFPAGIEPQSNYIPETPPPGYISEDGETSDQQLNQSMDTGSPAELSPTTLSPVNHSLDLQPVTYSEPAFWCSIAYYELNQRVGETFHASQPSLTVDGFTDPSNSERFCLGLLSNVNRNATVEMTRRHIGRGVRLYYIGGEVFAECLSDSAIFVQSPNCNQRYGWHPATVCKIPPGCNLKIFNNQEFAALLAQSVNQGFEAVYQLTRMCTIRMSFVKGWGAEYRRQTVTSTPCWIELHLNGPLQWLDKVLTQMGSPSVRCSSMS

These are yes or no findings as the source states them, for the method shown. In cells and extracts the contact can be indirect. Some binding calls cover weakened binding; strength is not graded here.

For assay [1], the target named is c-myc-pcDNA3.1-PSG9 (human) (UniProt Q00887). Briefly: co-IP; HCT-116 cells co-transfected for 24 hours with c-myc-pcDNA3.1-PSG9 and Flag-SMAD2, Flag-SMAD3 or Flag-SMAD4; IP with anti-c-myc (blot Flag) or anti-Flag (blot c-myc); 2 ug antibody overnight at 4°C, Protein A/G agarose, washes in RIPA lysis buffer.
Assay [2] has as its target SMAD4, endogenous (human (endogenous in SW-480, HT-29, HCT-116)) (UniProt Q13485). As to the kind of experiment: co-IP; endogenous proteins in lysates of SW-480, HT-29 and HCT-116 cells; IP with anti-SMAD4 (blot PSG9) or anti-PSG9 (blot SMAD4), mouse or rabbit IgG as negative control; 2 ug antibody overnight at 4°C, Protein A/G agarose, washes in RIPA lysis buffer.
Assay [3] has as its target Flag-SMAD3 (UniProt P84022). Briefly: co-IP; HCT-116 cells co-transfected for 24 hours with c-myc-pcDNA3.1-PSG9 and Flag-SMAD2, Flag-SMAD3 or Flag-SMAD4; IP with anti-c-myc (blot Flag) or anti-Flag (blot c-myc); 2 ug antibody overnight at 4°C, Protein A/G agarose, washes in RIPA lysis buffer.
The target in assay [4] is Flag-SMAD2 (UniProt Q15796). Described as above.
Assay [5] deals with Flag-SMAD4 (UniProt Q13485). Described as above.

As for Flag-SMAD2 (from UniProt Q15796 1-467), the binding result in assay [1] was “binds”. On to Flag-SMAD3 (from UniProt P84022 1-425), for which the binding result in assay [1] is reported as “binds”. Same read-out and setting: the entry for Flag-SMAD4 (from UniProt Q13485 1-552) is “binds”. On to “Pregnancy-specific glycoprotein 9 (PSG9), endogenous (from UniProt Q00887 35-426)”, for which the binding entry in assay [2] was “binds”. As to “c-myc-pcDNA3.1-PSG9 (from UniProt Q00887 35-426)”, the binding result in assay [3], in assay [4] and in assay [5] was “binds” each time.
